Experimental data reported in paper PMC6614419.
Like-named read-outs stand apart in the source and are kept apart here. Results are given in words; binding and its absence hold for the method and conditions named. Binding seen in cells or lysates may run through a third protein. Some binding calls cover weakened binding; strength is not graded here.

Sequences of proteins named here, by UniProt entry; tags and fusion partners are left off.
UniProt Q9QZL0: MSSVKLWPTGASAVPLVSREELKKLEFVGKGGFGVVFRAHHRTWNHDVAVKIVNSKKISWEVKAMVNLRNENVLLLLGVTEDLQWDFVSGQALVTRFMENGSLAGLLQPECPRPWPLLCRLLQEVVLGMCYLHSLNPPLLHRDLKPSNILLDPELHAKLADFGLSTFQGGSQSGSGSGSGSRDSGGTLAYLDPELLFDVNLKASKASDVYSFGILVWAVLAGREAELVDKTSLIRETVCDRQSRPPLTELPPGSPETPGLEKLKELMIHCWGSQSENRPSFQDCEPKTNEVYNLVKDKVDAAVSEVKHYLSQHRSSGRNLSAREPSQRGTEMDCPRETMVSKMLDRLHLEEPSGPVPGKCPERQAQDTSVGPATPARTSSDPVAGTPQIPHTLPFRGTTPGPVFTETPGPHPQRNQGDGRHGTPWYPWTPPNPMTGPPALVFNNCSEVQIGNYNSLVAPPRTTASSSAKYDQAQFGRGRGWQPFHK
UniProt Q9Y572: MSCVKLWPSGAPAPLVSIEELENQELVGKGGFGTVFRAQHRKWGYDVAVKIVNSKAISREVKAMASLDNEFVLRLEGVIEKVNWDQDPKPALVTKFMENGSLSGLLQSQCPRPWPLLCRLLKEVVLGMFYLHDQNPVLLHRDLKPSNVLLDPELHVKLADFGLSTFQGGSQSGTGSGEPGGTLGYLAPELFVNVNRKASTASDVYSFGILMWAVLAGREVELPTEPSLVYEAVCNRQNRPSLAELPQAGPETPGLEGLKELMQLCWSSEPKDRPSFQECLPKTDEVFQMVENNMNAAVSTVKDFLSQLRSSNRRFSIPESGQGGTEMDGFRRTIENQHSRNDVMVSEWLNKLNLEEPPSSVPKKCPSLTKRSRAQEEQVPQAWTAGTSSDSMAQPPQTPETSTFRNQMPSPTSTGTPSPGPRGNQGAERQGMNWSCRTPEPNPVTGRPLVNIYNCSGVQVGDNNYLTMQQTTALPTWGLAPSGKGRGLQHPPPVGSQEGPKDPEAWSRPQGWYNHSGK
UniProt Q8K1M6: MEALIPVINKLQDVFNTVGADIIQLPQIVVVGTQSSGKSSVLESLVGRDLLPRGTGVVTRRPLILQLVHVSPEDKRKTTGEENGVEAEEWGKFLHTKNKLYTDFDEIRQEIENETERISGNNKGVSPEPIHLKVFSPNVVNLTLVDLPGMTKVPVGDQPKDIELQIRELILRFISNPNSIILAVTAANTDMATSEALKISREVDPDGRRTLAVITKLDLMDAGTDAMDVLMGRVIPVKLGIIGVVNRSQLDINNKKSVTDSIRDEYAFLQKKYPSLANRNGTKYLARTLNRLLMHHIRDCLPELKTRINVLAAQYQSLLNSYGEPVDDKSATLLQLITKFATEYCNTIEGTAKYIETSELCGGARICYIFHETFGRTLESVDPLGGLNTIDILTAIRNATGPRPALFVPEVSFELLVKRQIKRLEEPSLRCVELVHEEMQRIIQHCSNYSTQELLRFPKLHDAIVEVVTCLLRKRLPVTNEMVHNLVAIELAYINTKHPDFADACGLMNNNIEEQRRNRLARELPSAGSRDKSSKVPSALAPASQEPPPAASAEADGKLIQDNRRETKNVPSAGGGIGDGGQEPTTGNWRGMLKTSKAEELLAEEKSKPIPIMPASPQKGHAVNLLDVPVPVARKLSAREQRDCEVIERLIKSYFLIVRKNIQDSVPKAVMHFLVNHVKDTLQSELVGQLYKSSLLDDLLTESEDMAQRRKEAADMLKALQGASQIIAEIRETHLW
UniProt O00429: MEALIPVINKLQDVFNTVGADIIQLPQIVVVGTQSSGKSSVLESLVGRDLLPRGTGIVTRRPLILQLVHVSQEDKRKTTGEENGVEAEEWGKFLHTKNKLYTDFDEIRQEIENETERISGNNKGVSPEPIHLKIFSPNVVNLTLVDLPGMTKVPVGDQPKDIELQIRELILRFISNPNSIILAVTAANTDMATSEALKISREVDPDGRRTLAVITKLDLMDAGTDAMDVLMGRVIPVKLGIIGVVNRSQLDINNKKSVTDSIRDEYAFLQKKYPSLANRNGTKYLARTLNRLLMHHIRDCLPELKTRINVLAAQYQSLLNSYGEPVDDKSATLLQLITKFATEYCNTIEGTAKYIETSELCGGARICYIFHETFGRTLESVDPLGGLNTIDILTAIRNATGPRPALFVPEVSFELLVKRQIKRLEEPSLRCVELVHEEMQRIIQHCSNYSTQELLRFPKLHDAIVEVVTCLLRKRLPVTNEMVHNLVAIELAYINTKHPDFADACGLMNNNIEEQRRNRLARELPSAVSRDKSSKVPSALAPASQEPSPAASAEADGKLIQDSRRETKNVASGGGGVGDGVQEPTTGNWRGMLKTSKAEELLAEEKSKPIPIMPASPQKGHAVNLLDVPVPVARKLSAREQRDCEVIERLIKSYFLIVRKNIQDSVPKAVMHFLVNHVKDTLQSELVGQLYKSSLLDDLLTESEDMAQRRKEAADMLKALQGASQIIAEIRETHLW

T1: Retinoblastoma (RB) protein (human (endogenous in L02)) (UniProt P06400)
T1 sequence: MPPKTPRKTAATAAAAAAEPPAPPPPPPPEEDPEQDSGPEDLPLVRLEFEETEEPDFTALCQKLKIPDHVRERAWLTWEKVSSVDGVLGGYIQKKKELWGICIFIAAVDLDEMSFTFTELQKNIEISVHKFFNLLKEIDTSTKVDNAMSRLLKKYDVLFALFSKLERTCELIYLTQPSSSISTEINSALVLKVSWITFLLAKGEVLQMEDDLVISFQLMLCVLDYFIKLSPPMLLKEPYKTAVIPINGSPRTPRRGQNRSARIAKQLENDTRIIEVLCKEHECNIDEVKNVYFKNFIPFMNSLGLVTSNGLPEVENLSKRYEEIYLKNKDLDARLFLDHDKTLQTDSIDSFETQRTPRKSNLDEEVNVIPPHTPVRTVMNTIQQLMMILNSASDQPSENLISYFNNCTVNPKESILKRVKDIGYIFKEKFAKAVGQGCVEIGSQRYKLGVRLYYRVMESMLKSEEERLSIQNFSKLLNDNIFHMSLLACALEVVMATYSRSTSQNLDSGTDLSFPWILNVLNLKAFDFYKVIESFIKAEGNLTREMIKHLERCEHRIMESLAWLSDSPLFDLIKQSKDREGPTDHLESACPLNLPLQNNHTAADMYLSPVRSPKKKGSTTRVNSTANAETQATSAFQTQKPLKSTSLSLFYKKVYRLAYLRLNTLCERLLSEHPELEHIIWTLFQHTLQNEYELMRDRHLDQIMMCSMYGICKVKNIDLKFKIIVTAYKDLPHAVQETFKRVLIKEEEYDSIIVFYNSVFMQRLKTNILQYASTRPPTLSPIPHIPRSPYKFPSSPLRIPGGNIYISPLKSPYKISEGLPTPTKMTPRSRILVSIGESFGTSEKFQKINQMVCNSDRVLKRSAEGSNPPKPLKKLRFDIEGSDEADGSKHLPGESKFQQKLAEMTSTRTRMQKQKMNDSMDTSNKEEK

T2: mixed lineage kinase domain like (MLKL) protein (human (endogenous in L02)) (UniProt Q8NB16)
T2 sequence: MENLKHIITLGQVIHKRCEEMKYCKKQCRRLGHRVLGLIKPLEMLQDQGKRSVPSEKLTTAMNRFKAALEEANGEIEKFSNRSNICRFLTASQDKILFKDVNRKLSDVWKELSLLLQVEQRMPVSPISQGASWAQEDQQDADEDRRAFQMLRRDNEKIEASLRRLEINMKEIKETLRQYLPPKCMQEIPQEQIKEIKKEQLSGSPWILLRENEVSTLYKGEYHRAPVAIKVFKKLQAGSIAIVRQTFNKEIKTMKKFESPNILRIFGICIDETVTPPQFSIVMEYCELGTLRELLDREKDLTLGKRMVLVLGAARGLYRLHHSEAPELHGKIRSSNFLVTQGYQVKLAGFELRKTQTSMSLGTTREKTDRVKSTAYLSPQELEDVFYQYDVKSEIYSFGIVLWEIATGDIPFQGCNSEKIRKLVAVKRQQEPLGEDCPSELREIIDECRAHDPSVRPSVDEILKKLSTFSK


Columns and labels:
[1] = target: T1, Retinoblastoma (RB) protein (human (endogenous in L02)); assay: co-IP; whole cell lysates (Nonidet P-40 lysis buffer) of L02 cells, control or CdCl2 20 uM 6 h, immunoprecipitated with anti-RB antibody on SureBeads, room temperature 1 h, washed in PBST; Western blot
[2] = target: receptor interaction protein kinase 3 (RIPK3), mouse liver (mouse (endogenous in ICR mouse liver)) (UniProt Q9QZL0); assay: co-IP; mitochondrial fraction of liver of ICR mice (saline or CdCl2 1 mg/kg, 7 days) immunoprecipitated with anti-RIPK3 antibody on SureBeads, room temperature 1 h, washed in PBST; Western blot
[3] = target: T2, mixed lineage kinase domain like (MLKL) protein (human (endogenous in L02)); assay: proximity ligation; Duolink PLA on fixed, permeabilized L02 cells, control or treated with CdCl2; foci per cell counted
[4] = target: receptor interaction protein kinase 3 (RIPK3) (human (endogenous in L02)) (UniProt Q9Y572); assay: co-IP; whole cell lysates (Nonidet P-40 lysis buffer) of L02 cells, control or CdCl2 20 uM 6 h, immunoprecipitated with anti-RIPK3 antibody on SureBeads, room temperature 1 h, washed in PBST; Western blot
[5] = target: receptor interaction protein kinase 3 (RIPK3), mouse liver (mouse (endogenous in ICR mouse liver)) (UniProt Q9QZL0); assay: co-IP; mitochondrial fraction of liver of ICR mice (saline or CdCl2 1 mg/kg, 7 days) immunoprecipitated with anti-RIPK3 antibody on SureBeads, room temperature 1 h, washed in PBST; Western blot; remark: listed apart in the source

Molecule | binding [1] | binding [5] | other results
Dynamin-related protein 1 (Drp1), mouse liver (from UniProt Q8K1M6 1-736) |  |  | binding [2]: binds
Retinoblastoma (RB) protein (protein, UniProt P06400 1-928) MPPKTPRKTAATAAAAAAEPPAPPPPPPPEEDPEQDSGPEDLPLVRLEFEETEEPDFTALCQKLKIPDHVRERAWLTWEKVSSVDGVLGGYIQKKKELWGICIFIAAVDLDEMSFTFTELQKNIEISVHKFFNLLKEIDTSTKVDNAMSRLLKKYDVLFALFSKLERTCELIYLTQPSSSISTEINSALVLKVSWITFLLAKGEVLQMEDDLVISFQLMLCVLDYFIKLSPPMLLKEPYKTAVIPINGSPRTPRRGQNRSARIAKQLENDTRIIEVLCKEHECNIDEVKNVYFKNFIPFMNSLGLVTSNGLPEVENLSKRYEEIYLKNKDLDARLFLDHDKTLQTDSIDSFETQRTPRKSNLDEEVNVIPPHTPVRTVMNTIQQLMMILNSASDQPSENLISYFNNCTVNPKESILKRVKDIGYIFKEKFAKAVGQGCVEIGSQRYKLGVRLYYRVMESMLKSEEERLSIQNFSKLLNDNIFHMSLLACALEVVMATYSRSTSQNLDSGTDLSFPWILNVLNLKAFDFYKVIESFIKAEGNLTREMIKHLERCEHRIMESLAWLSDSPLFDLIKQSKDREGPTDHLESACPLNLPLQNNHTAADMYLSPVRSPKKKGSTTRVNSTANAETQATSAFQTQKPLKSTSLSLFYKKVYRLAYLRLNTLCERLLSEHPELEHIIWTLFQHTLQNEYELMRDRHLDQIMMCSMYGICKVKNIDLKFKIIVTAYKDLPHAVQETFKRVLIKEEEYDSIIVFYNSVFMQRLKTNILQYASTRPPTLSPIPHIPRSPYKFPSSPLRIPGGNIYISPLKSPYKISEGLPTPTKMTPRSRILVSIGESFGTSEKFQKINQMVCNSDRVLKRSAEGSNPPKPLKKLRFDIEGSDEADGSKHLPGESKFQQKLAEMTSTRTRMQKQKMNDSMDTSNKEEK |  |  | binding [3]: binds; binding [4]: binds
mixed lineage kinase domain like (MLKL) protein, mouse liver (protein, UniProt Q9D2Y4 1-472) MDKLGQIIKLGQLIYEQCEKMKYCRKQCQRLGNRVHGLLQPLQRLQAQGKKNLPDDITAALGRFDEVLKEANQQIEKFSKKSHIWKFVSVGNDKILFHEVNEKLRDVWEELLLLLQVYHWNTVSDVSQPASWQQEDRQDAEEDGNENMKVILMQLQISVEEINKTLKQCSLKPTQEIPQDLQIKEIPKEHLGPPWTKLKTSKMSTIYRGEYHRSPVTIKVFNNPQAESVGIVRFTFNDEIKTMKKFDSPNILRIFGICIDQTVKPPEFSIVMEYCELGTLRELLDREKDLTMSVRSLLVLRAARGLYRLHHSETLHRNISSSSFLVAGGYQVKLAGFELSKTQNSISRTAKSTKAERSSSTIYVSPERLKNPFCLYDIKAEIYSFGIVLWEIATGKIPFEGCDSKKIRELVAEDKKQEPVGQDCPELLREIINECRAHEPSQRPSVDGRSLSGRERILERLSAVEESTDKKV |  | binds | 

Second part, led by results:

binding [1] | binding [5] | Molecule | other results
binds |  | Dynamin-related protein 1 (Drp1) (from UniProt O00429 1-736) | 
binds |  | receptor interaction protein kinase 3 (RIPK3) (from UniProt Q9Y572 1-518) | 
 | binds | Retinoblastoma (RB) protein, mouse liver (protein, UniProt P13405 1-921) MPPKAPRRAAAAEPPPPPPPPPREDDPAQDSGPEELPLARLEFEEIEEPEFIALCQKLKVPDHVRERAWLTWEKVSSVDGILEGYIQKKKELWGICIFIAAVDLDEMPFTFTELQKSIETSVYKFFDLLKEIDTSTKVDNAMSRLLKKYNVLCALYSKLERTCELIYLTQPSSALSTEINSMLVLKISWITFLLAKGEVLQMEDDLVISFQLMLCVVDYFIKFSPPALLREPYKTAAIPINGSPRTPRRGQNRSARIAKQLENDTRIIEVLCKEHECNIDEVKNVYFKNFIPFINSLGIVSSNGLPEVESLSKRYEEVYLKNKDLDARLFLDHDKTLQTDPIDSFETERTPRKNNPDEEANVVTPHTPVRTVMNTIQQLMVILNSASDQPSENLISYFNNCTVNPKENILKRVKDVGHIFKEKFANAVGQGCVDIGVQRYKLGVRLYYRVMESMLKSEEERLSIQNFSKLLNDNIFHMSLLACALEVVMATYSRSTLQHLDSGTDLSFPWILNVLNLKAFDFYKVIESFIKVEANLTREMIKHLERCEHRIMESLAWLSDSPLFDLIKQSKDGEGPDNLEPACPLSLPLQGNHTAADMYLSPLRSPKKRTSTTRVNSAANTETQAASAFHTQKPLKSTSLALFYKKVYRLAYLRLNTLCARLLSDHPELEHIIWTLFQHTLQNEYELMRDRHLDQIMMCSMYGICKVKNIDLKFKIIVTAYKDLPHAAQETFKRVLIREEEFDSIIVFYNSVFMQRLKTNILQYASTRPPTLSPIPHIPRSPYKFSSSPLRIPGGNIYISPLKSPYKISEGLPTPTKMTPRSRILVSIGESFGTSEKFQKINQMVCNSDRVLKRSAEGGNPPKPLKKLRFDIEGADEADGSKHLPAESKFQQKLAEMTSTRTRMQKQRMNESKDVSNKEEK | 
